From patent US12415781B2, “Compounds with biguanidyl radical and uses thereof” (INSTITUT CURIE, priority 2018, dated 2025)
Counter-ions that a name gives are not always drawn.

Test system: copper uptake protein 1 (Ctr1)
Conditions: MDA-MB-468 cells, 72 h

CN(C)C(=N)NC(=N)N [metformin, 1,1-Dimethylbiguanide hydrochloride]
expression of copper uptake protein 1 (Ctr1): reduced expression
